# Results deposited as PubChem BioAssay AID1224828 (NIAID, 2016).
# Purpose: 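Knock-downs that increase or decrease LPS-induced p65 nuclear translocation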 (primary screen)
# Cell system: mouse RAW264.7 G9 macrophage reporter cells (GFP-p65, Tnf promoter-mCherry)
# Reagent: siRNA pool against mouse genes, 100 nM
# Timing: 2 days siRNA transfection, then 40 min LPS before fixation
# Challenge: LPS (Salmonella minnesota R595) at 10 ng/ml
# Read-out: 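Imaged p65 nuclear translocation ratio, normalised to the plate median, converted to robust z-scores and averaged across two replicates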
# Direction: p65 translocation robust z-score: higher = more nuclear NF-kappaB p65 after LPS than the plate median; nuclear/cytoplasmic p65 ratio: higher = more nuclear NF-kappaB p65
# Rule for the call: 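Active if robust z is above 3.3 (negative regulators) or below -1.56, the Tlr4 control median (positive regulators); activity score 50 or more; control wells not called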
# Meaning of the calls: active = hit (p65 shift raised or lowered); inactive = no clear change
# This is one part, drawn at random, of about 17,000 reagents. 762 of them (4.5%) were called active. 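Active calls include both raised and lowered p65 entry, mostly lowered; wells with fewer than 50 cells lack a z-score.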 The raw values are shown without normalisation. Reagents against one gene are numbered here.
Target gene,reagent,p65 translocation robust z-score,"nuclear/cytoplasmic p65 ratio, rep 1","nuclear/cytoplasmic p65 ratio, rep 2",low cell count flag,call
Rcvrn (GeneID 19674),1,0.05,1.76,1.3,enough cells to score,inactive
Slc6a7 (GeneID 240332),1,-0.91,1.37,1.07,enough cells to score,inactive
Or8b12 (GeneID 258882),1,,1.48,1.34,fewer than 50 cells per well; well left out of scoring,inactive
Ubxn7 (GeneID 224111),1,,1.34,1.17,fewer than 50 cells per well; well left out of scoring,inactive
Elovl5 (GeneID 68801),1,-0.33,1.42,1.32,enough cells to score,inactive
1810024B03Rik (GeneID 329509),1,,1.47,1.4,fewer than 50 cells per well; well left out of scoring,inactive
Cplx2 (GeneID 12890),1,-1.7,1.26,1.58,enough cells to score,active
Zfp940 (GeneID 233057),1,-0.99,1.49,1.6,enough cells to score,inactive
Aftph (GeneID 216549),1,-1.89,1.23,1.22,enough cells to score,active
Nkx6-1 (GeneID 18096),1,-2.35,1.24,1.1,enough cells to score,active
Gnl3 (GeneID 30877),1,1.25,1.87,1.89,enough cells to score,inactive
Dst (GeneID 13518),1,1.7,1.7,1.57,enough cells to score,inactive
Inpp5e (GeneID 64436),1,-1.27,1.36,1.3,enough cells to score,inactive
Dennd4a (GeneID 102442),1,0.96,1.63,1.89,enough cells to score,inactive
Dennd4a (GeneID 102442),2,-0.45,1.56,1.37,enough cells to score,inactive
Il33 (GeneID 77125),1,1.4,1.52,1.85,enough cells to score,inactive
Trf (GeneID 22041),1,1.06,1.66,1.65,enough cells to score,inactive
Tyms (GeneID 22171),1,1,1.61,1.68,enough cells to score,inactive
Fbxo27 (GeneID 233040),1,,1.29,1.22,fewer than 50 cells per well; well left out of scoring,inactive
Krt79 (GeneID 223917),1,-2.81,1.16,1.37,enough cells to score,active
Zfp566 (GeneID 72556),1,0.66,1.42,1.62,enough cells to score,inactive
Xdh (GeneID 22436),1,-0.57,1.49,1.37,enough cells to score,inactive
Cd209a (GeneID 170786),1,-1.94,1.31,1.5,enough cells to score,active
Lrfn4 (GeneID 225875),1,1.32,1.92,1.74,enough cells to score,inactive
Pdx1 (GeneID 18609),1,0.04,1.51,1.35,enough cells to score,inactive
Nr5a1 (GeneID 26423),1,0.44,1.52,1.46,enough cells to score,inactive

Reagents listed so far with an active call:
Target gene,reagent,p65 translocation robust z-score,"nuclear/cytoplasmic p65 ratio, rep 1","nuclear/cytoplasmic p65 ratio, rep 2",low cell count flag,call
Cplx2 (GeneID 12890),1,-1.7,1.26,1.58,enough cells to score,active
Aftph (GeneID 216549),1,-1.89,1.23,1.22,enough cells to score,active
Nkx6-1 (GeneID 18096),1,-2.35,1.24,1.1,enough cells to score,active
Krt79 (GeneID 223917),1,-2.81,1.16,1.37,enough cells to score,active
Cd209a (GeneID 170786),1,-1.94,1.31,1.5,enough cells to score,active

The listing continues.
Target gene,reagent,p65 translocation robust z-score,"nuclear/cytoplasmic p65 ratio, rep 1","nuclear/cytoplasmic p65 ratio, rep 2",low cell count flag,call
Mtrex (GeneID 72198),1,,1.33,1.45,fewer than 50 cells per well; well left out of scoring,inactive
Nr2f2 (GeneID 11819),1,,1.44,1.33,fewer than 50 cells per well; well left out of scoring,inactive
Nr2f2 (GeneID 11819),2,-0.64,1.35,1.32,enough cells to score,inactive
Smgc (GeneID 223809),1,,1.33,1.03,fewer than 50 cells per well; well left out of scoring,inactive
Zfp933 (GeneID 242747),1,1.24,1.89,1.75,enough cells to score,inactive
Rev3l (GeneID 19714),1,0.34,1.63,1.5,enough cells to score,inactive
Ca7 (GeneID 12354),1,-0.94,1.45,1.63,enough cells to score,inactive
Mfap2 (GeneID 17150),1,0.78,1.74,1.74,enough cells to score,inactive
Pmf1 (GeneID 67037),1,,1.53,1.1,fewer than 50 cells per well; well left out of scoring,inactive
Top2a (GeneID 21973),1,0.34,1.56,1.57,enough cells to score,inactive
Ints9 (GeneID 210925),1,0.56,1.69,1.84,enough cells to score,inactive
Gsr (GeneID 14782),1,-0.44,1.34,1.35,enough cells to score,inactive
Or4c101 (GeneID 258921),1,-0.13,1.65,1.55,enough cells to score,inactive
Ugt2b1 (GeneID 71773),1,-0.28,1.55,1.59,enough cells to score,inactive
Or2y13 (GeneID 404337),1,,1.66,1.3,fewer than 50 cells per well; well left out of scoring,inactive
Trmt5 (GeneID 76357),1,-0.27,1.33,1.46,enough cells to score,inactive
Pex19 (GeneID 19298),1,0.04,1.34,1.52,enough cells to score,inactive
Zfp710 (GeneID 209225),1,-0.15,1.27,1.51,enough cells to score,inactive
Pex3 (GeneID 56535),1,0.59,1.55,1.46,enough cells to score,inactive
Neu4 (GeneID 241159),1,-0.22,1.77,1.54,enough cells to score,inactive
Tcl1 (GeneID 21432),1,0.54,1.69,1.51,enough cells to score,inactive
Zbtb12 (GeneID 193736),1,-0.58,1.48,1.76,enough cells to score,inactive
Col4a2 (GeneID 12827),1,0.12,1.49,1.39,enough cells to score,inactive
Lsm11 (GeneID 72290),1,0.11,1.64,1.64,enough cells to score,inactive
Cdk1 (GeneID 12534),1,,1.65,1.46,fewer than 50 cells per well; well left out of scoring,inactive
Il16 (GeneID 16170),1,-0.22,1.28,1.36,enough cells to score,inactive
Dglucy (GeneID 217830),1,-1.71,1.22,1.3,enough cells to score,active
Hmox2 (GeneID 15369),1,-1.64,1.18,1.2,enough cells to score,active
Aak1 (GeneID 269774),1,,1.43,1.96,fewer than 50 cells per well; well left out of scoring,inactive
Tnrc6a (GeneID 233833),1,,1.27,1.2,fewer than 50 cells per well; well left out of scoring,inactive
Med27 (GeneID 68975),1,1.22,1.64,1.54,enough cells to score,inactive
Eif4g2 (GeneID 13690),1,-0.87,1.39,1.21,enough cells to score,inactive
Or9g8 (GeneID 258562),1,2.69,2.05,1.99,enough cells to score,inactive
